Experimental data reported in paper PMC11224324.
No constants are given. Whether binding was seen depends on the method and setting. Sequences can lack the tags named with a protein.

Target: Cal_Ypd1, Ypd1 from Candida albicans (residues 12-184), Streptag removed (Candida albicans) (UniProt Q59WC6)
Test: SEC-MALS; 40 µg of protein injected on PROTEIN KW-803 (Shodex); 50 mM Hepes pH 7, 150 mM NaCl; 0.45 ml/min; both purified

B1: Cal_Ypd1, Ypd1 from Candida albicans (residues 12-184), Streptag removed (protein, UniProt Q59WC6 12-184)
chain: SGLVDWAVFSEIVTMDEDEEGFSKSLVEVFVSQVEETFEEIDKYLKEKNLEKLSSSGHFLKGSAAALGLTKISNQCERIQNYGHKINFDNFQLEDIKTKGDSAVSAENVAVNDGETNPENGSNGNETSNNKTNTSNIPDESSDDFWIALIEDALAKARDGFDQSRRALDEYYE
- binding: no binding (tested: 40 µg of protein injected)
